Assay results reported in publication PMC9807647.
Changes are numbered by the printed parent chain. No constants are given. Whether binding was seen depends on the method and setting. Binding seen in cells or lysates may run through a third protein. Some results given as binding are weak or reduced against the parent protein; the word gives no strength. Tags and fused reporters may be left off the sequences shown.

Amino acid sequences for entries named in this document (tags omitted).
UniProt Q93009: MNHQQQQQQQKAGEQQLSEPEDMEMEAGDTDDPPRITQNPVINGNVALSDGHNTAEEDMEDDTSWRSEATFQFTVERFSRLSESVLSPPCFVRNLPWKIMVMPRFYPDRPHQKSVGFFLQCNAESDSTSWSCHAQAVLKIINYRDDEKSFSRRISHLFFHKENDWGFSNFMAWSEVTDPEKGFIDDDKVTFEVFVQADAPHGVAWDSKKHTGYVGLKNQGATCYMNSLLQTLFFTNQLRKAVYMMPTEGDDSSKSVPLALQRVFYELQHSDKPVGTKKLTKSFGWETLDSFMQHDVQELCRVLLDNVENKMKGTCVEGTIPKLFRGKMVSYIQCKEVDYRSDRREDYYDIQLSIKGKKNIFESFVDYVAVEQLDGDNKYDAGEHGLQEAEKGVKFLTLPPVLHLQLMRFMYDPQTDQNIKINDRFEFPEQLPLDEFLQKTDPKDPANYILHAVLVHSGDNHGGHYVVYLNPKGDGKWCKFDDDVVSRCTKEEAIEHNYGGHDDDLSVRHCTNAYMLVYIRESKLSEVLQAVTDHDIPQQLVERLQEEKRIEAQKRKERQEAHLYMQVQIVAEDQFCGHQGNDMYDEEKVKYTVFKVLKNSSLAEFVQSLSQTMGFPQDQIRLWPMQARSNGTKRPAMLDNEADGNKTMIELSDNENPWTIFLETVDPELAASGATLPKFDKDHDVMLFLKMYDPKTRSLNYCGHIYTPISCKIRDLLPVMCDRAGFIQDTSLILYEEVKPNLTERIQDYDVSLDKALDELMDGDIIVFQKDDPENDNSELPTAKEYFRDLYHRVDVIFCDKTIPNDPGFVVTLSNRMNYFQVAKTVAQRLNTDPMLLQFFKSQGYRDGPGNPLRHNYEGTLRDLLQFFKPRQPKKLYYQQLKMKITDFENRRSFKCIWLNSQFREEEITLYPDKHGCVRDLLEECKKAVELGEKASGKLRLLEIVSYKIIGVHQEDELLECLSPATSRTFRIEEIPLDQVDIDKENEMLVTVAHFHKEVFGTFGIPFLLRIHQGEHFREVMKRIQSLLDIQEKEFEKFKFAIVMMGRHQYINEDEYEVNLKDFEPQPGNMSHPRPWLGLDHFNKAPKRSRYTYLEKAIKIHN
UniProt Q9Y297: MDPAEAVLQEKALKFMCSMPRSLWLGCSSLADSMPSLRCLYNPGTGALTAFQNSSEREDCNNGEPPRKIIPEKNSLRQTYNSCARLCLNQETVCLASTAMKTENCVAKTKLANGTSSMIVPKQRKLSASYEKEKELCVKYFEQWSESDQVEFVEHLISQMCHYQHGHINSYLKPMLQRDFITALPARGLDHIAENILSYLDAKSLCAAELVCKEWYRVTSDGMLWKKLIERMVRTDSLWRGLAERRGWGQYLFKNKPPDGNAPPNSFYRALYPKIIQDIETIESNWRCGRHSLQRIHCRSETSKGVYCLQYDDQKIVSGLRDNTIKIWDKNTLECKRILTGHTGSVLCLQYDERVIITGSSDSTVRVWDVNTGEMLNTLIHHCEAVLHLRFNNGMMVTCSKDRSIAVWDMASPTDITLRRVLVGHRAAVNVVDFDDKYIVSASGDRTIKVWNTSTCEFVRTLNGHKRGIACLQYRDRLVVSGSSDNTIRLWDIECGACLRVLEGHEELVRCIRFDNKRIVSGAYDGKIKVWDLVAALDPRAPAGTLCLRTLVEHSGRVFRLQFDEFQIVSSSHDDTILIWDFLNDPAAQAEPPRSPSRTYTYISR

Experiments:
His-UHRF1-T210A = molecular target: T1, His-UHRF1-T210A (UniProt Q96T88); assay: co-IP; HEK-293T co-transfected with His-UHRF1 (WT or T210A) and Flag-myr-AKT1; IP with anti-His antibody, USP7 and BTRC detected by western blotting; treatments: 10 μM MK2206 for 24 h, AKT1 knockdown
T1 sequence: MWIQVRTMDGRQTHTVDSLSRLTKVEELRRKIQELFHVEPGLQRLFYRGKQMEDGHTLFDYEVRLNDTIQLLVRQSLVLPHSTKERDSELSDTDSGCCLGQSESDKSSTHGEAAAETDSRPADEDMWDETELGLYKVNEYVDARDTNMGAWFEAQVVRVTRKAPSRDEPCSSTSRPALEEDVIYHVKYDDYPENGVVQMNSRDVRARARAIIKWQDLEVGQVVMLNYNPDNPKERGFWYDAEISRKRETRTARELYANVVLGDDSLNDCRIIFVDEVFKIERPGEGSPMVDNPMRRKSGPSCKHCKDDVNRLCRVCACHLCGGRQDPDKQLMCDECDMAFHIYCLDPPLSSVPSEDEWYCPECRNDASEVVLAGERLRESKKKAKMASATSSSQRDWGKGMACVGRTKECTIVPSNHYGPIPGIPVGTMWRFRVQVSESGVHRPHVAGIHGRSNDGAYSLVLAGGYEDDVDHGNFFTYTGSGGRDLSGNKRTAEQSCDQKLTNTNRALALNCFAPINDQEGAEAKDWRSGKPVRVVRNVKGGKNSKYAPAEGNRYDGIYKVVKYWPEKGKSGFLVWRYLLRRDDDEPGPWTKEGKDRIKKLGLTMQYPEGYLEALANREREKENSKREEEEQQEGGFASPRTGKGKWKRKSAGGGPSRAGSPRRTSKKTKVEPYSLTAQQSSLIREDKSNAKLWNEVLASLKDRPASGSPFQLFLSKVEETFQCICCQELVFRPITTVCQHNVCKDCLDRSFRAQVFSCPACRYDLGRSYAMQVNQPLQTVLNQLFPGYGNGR

[1] = molecular target: T2, His-UHRF1 (wild-type Ubiquitin-like containing PHD Ring Finger 1) (UniProt Q96T88); assay: as above
T2 sequence: T1 sequence with A210T

Row | binding (His-UHRF1-T210A) | binding [1] | Substance
1 | binds | binds | deubiquitinase USP7 (from UniProt Q93009 1-1102) (enzyme)
2 | binds | binds | E3 ubiquitin protein ligase BTRC (from UniProt Q9Y297 1-605) (enzyme)
